Data taken from ChEMBL document CHEMBL3988442, “University of Dundee, Small-Polar-MMV Screening Library” (2021).

Values are the deposited “Percent Effect”, in %.
The controls that fix the scale are not given in the record; negative values are as filed.
Compounds were drawn at random from those tested, without regard to their results.
A dash means the value is not listed here; it may have been measured.

A: 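Whole-cell assay for inhibitors of Mycobacterium tuberculosis growth, labelled Cornell in the record; the read-out is not stated. The concentration is filed as 10 mM, unlikely as a test dose, so the dose is not known. Higher means stronger inhibition (inferred from two other growth screens of the library). Of about 53,000 compounds tested this way, about 900 (1.7%) reached 50% or more in at least one test.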
B: 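Assay on Mycobacterium tuberculosis, filed only as a heat shock assay from Cornell; the read-out is not stated. The concentration is filed as 10 mM, unlikely as a test dose, so the dose is not known. Higher reads as stronger inhibition (inferred: compounds with an IC50 in retests scored well above the rest). About 69,000 compounds were tested under these conditions; 1.4% (about 930) showed 50% or more at least once.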

structure,A,B
O=C(NCCCn1cncn1)NCC(c1ccccc1)N1CCCC1 (stereo not given),-,-5.121
CCNC(=O)N1CC(c2nc(Cc3ccccc3)no2)C1,3.254,0.2914
[H][C@@]12OCCN(C(=O)c3ccco3)[C@@]1([H])CC[C@H]2OC,7.802,-8.529
COCCN(C)C[C@H]1C[C@@H](CO)CN(C(=O)c2ccn(C)c(=O)c2)C1,15.3,1.438
Cc1nc(C(C)NCc2cc(O)c3cccc(F)c3n2)cs1 (stereo not given),0.2453,-18.01
CC(C)(C)c1cn2c(n1)C(CNCc1ccccn1)CCC2 (stereo not given),29.19,70.45
CCN(CC)S(=O)(=O)N1CCCC1c1nnc2n1CCCCC2 (stereo not given),-,14.05
[H][C@@]12CN(Cc3csc(C)n3)C[C@]1([H])CN(C(=O)c1ccoc1C)C2,-11.8,-18.81
COc1ncc(C)cc1NC(=O)CCc1ccccn1,16.49,2.862
COCC(=O)N1CCC2(CCN(Cc3ccc(C)cc3)CC2)CC1.O=C(O)C(F)(F)F,-21.4,7.393
CCN1CCC(CNC(=O)Nc2cccnc2OC)CC1,15.62,10.37
CSc1ncccc1C(=O)N(C)C(C)Cc1ccccn1 (stereo not given),-24.2,7.696
CN1CCC2(CCN(S(=O)(=O)c3ccc(-c4cnco4)s3)CC2)C1,14.81,20.04
CN(CCc1ccncc1)CC1CCCN1c1cccnn1 (stereo not given),-,-20.74
O=C(C1CCCO1)N1CCC2(CC1)CNCCO2 (stereo not given),5.551,-5.87
Cc1cnn(CCC(=O)N2CCCN(c3ccccc3C#N)CC2)c1,21.68,-14.58
COCCN1CCN(Cc2cnc(C3(C)CCCCO3)nc2)CC1 (stereo not given),35.35,-2.523
CC(CN1CCOCC1)NC(=O)NCCc1ccc(Cl)s1 (stereo not given),-24.88,-25.24
[H][C@]12CCC[C@@H](CNc3ccccn3)[C@@]1([H])CN(Cc1csnn1)C2,23.76,11.76
[H][C@]12CC[C@]([H])(CN(Cc3nnc(C4CC4)o3)C1)N(CCOC)C2=O,-7.325,-19.34
CC(C)c1nc(C2CCCN2CC(=O)N2CCc3ccccc32)no1 (stereo not given),-,-6.537
O=C(C1CCCS1)N1CCOc2cccc(F)c21 (stereo not given),-,-18.49
[H][C@@]12CN(CC3CC3)CCO[C@]1([H])CN(C(=O)c1ncccn1)C2,-12.88,-8.715
Cc1cc(NC(=O)NCc2cccnc2OC2CCCC2)n(C)n1,-15.36,-2.439
N#CCCCOc1cccc(CN2CCCC2c2ccc[nH]2)c1 (stereo not given),-,-7.682
COc1cccc(C2CCCN2C(=O)c2cc3c(nc2OC)CCC3)c1 (stereo not given),-,-10.55
CC(C)(C)c1nccc(C2(c3ccccc3Cl)CCNCC2)n1,-26.12,44.54
CCc1nc2n(n1)CC(NCCC(=O)Nc1cc(C)on1)CC2 (stereo not given),-,-3.277
Cc1cn2cc(-c3nc4c([nH]3)CCCNC4=O)nc2s1,-,-9.003
CN(Cc1ccc2nsnc2c1)CC1(O)CNCCOC1 (stereo not given),-,-8.588
CNC(=O)C1CCCCN1C(=O)c1csc(-c2ccc(C)o2)n1 (stereo not given),-15.58,-17.69
CCC(C)NS(=O)(=O)Cc1cccc(NC(=O)c2cc[nH]c2C)c1 (stereo not given),-,-0.5382
CCn1cc(C(=O)N(C)Cc2c(F)cccc2Cl)cn1,-,-13.83
Cc1[nH]ccc1C(=O)Nc1cccc(CN2CCC(CO)CC2)c1,-15.53,-14.55
COc1cc(-c2cccc3c2OC(CN)C3)ccc1O (stereo not given),-,-11.64
CCn1ccnc1CN1CCCN(C(=O)c2cnn(C)c2)CC1,-,32.36
COc1ccc(OC)c(CNCCc2cc(F)cc3c2OCOC3)c1,-8.969,5.621
CC(=O)N1CCCC(c2ccc(C(=O)NC3CCCC3)cn2)C1 (stereo not given),-27.02,0.1499
CSC(C)C(=O)N1CCN(CC(C)(C)O)CC1 (stereo not given),17.89,17.62
O=S(=O)(c1ccccc1N1CC(n2cccn2)C1)C(F)(F)F,0.589,-9.061
Cc1nc(C(=O)N2CCCC2c2c(C)nn(C)c2Cl)ccc1C#N (stereo not given),-9.297,6.433
N#CC1(NC(=O)CN2CCc3c(ncn3C3CC3)C2)CCCC1,-,-173.5
Fc1cnc(N2CCCC3(CCN(c4ncccn4)C3)C2)nc1 (stereo not given),-21.01,-9.008
[H][C@@]12CS(=O)(=O)C[C@]1([H])N(Cc1cnn(-c3cccc(C)c3)c1)CCN2C,-1.757,16.54
O=C(Nc1ccccc1)C1=CC2(CCNCC2)c2ccccc21,-16.18,-6.554

The last 5 entries again:

* Cc1nc(C(=O)N2CCCC2c2c(C)nn(C)c2Cl)ccc1C#N (stereo not given) : A: -9.297%; B: 6.433%
* N#CC1(NC(=O)CN2CCc3c(ncn3C3CC3)C2)CCCC1 : B: -173.5%
* Fc1cnc(N2CCCC3(CCN(c4ncccn4)C3)C2)nc1 (stereo not given) : A: -21.01%; B: -9.008%
* [H][C@@]12CS(=O)(=O)C[C@]1([H])N(Cc1cnn(-c3cccc(C)c3)c1)CCN2C : A: -1.757%; B: 16.54%
* O=C(Nc1ccccc1)C1=CC2(CCNCC2)c2ccccc21 : A: -16.18%; B: -6.554%